Source: article PMC7614367, “Itraconazole inhibits endothelial cell migration by disrupting inositol pyrophosphate-dependent focal adhesion dynamics and cytoskeletal remodeling” (Biomedicine & Pharmacotherapy, 2023)
These are yes or no findings as the source states them, for the method shown. For some assays here: In cells and extracts the contact can be indirect. Some results given as binding are weak or reduced against the parent protein; the word gives no strength. For some assays here: Tags and fused reporters may be left off the sequences shown.

B1: endogenous FAK (HUVECs), Q05397 1-1052 (enzyme)
chain: MAAAYLDPNLNHTPNSSTKTHLGTGMERSPGAMERVLKVFHYFESNSEPTTWASIIRHGDATDVRGIIQKIVDSHKVKHVACYGFRLSHLRSEEVHWLHVDMGVSSVREKYELAHPPEEWKYELRIRYLPKGFLNQFTEDKPTLNFFYQQVKSDYMLEIADQVDQEIALKLGCLEIRRSYWEMRGNALEKKSNYEVLEKDVGLKRFFPKSLLDSVKAKTLRKLIQQTFRQFANLNREESILKFFEILSPVYRFDKECFKCALGSSWIISVELAIGPEEGISYLTDKGCNPTHLADFTQVQTIQYSNSEDKDRKGMLQLKIAGAPEPLTVTAPSLTIAENMADLIDGYCRLVNGTSQSFIIRPQKEGERALPSIPKLANSEKQGMRTHAVSVSETDDYAEIIDEEDTYTMPSTRDYEIQRERIELGRCIGEGQFGDVHQGIYMSPENPALAVAIKTCKNCTSDSVREKFLQEALTMRQFDHPHIVKLIGVITENPVWIIMELCTLGELRSFLQVRKYSLDLASLILYAYQLSTALAYLESKRFVHRDIAARNVLVSSNDCVKLGDFGLSRYMEDSTYYKASKGKLPIKWMAPESINFRRFTSASDVWMFGVCMWEILMHGVKPFQGVKNNDVIGRIENGERLPMPPNCPPTLYSLMTKCWAYDPSRRPRFTELKAQLSTILEEEKAQQEERMRMESRRQATVSWDSGGSDEAPPKPSRPGYPSPRSSEGFYPSPQHMVQTNHYQVSGYPGSHGITAMAGSIYPGQASLLDQTDSWNHRPQEIAMWQPNVEDSTVLDLRGIGQVLPTHLMEERLIRQQQEMEEDQRWLEKEERFLKPDVRLSRGSIDREDGSLQGPIGNQHIYQPVGKPDPAAPPKKPPRPGAPGHLGSLASLSSPADSYNEGVKLQPQEISPPPTANLDRSNDKVYENVTGLVKAVIEMSSKIQPAPPEEYVPMVKEVGLALRTLLATVDETIPLLPASTHREIEMAQKLLNSDLGELINKMKLAQQYVMTSLQQEYKKQMLTAAHALAVDAKNLLDVIDQARLKMLGQTRPH
B2: GST-fused FAK (purified from HEK293 cells), Q05397 1-1052 (enzyme)
chain: B1 chain

Tests used:
[1] = biological target: GST-fused FAK (in HUVECs), Q05397; experiment: pull-down; GST-FAK pulled down from HUVECs expressing it, endogenous FAK detected; cells treated with DMSO, itraconazole (3 μM) or TNP (5 μM) for 24 h; settings: remark: other sources report otherwise
[2] = biological target: flag-tagged FAK (from HEK293 cells, on beads), Q05397; experiment: pull-down; in vitro protein binding assay: flag-FAK immobilised on protein A/G beads by anti-flag antibody, purified GST-FAK added in the presence of InsP6, 5-InsP7, 5-PCP or CF2, overnight at 4 °C; both purified; settings: remark: other sources report otherwise

| Binder | binding [1] | binding [2] |
| --- | --- | --- |
| B1 | binds | – |
| B2 | – | binds |
